One molecule from US10155020B2, “Compositions and methods for treating hepatitis B” (The Regents of the University of Colorado, a body corporate, priority 2012, dated 2018) can be followed below.

This assay addresses T1, CED-9 (C. elegans, UniProt P41958 1-251).
T1 sequence (looked up): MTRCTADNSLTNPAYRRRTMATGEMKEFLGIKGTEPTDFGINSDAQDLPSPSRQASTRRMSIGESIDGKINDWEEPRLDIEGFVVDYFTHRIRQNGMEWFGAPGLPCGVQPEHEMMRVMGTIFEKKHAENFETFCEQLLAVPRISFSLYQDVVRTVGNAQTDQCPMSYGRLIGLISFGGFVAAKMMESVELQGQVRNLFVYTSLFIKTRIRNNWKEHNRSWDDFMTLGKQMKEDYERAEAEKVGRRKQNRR
As to the kind of experiment: gel filtration (Superdex 200). A general note: SEC sorts molecules by how far they enter the pores of the column.

No constants are given. Whether binding was seen depends on the method and setting. Some entries that bind do so weakly or less than the wild type.

B1: CED-4 (protein, C. elegans, UniProt P30429 1-549, looked up)
chain: MLCEIECRALSTAHTRLIHDFEPRDALTYLEGKNIFTEDHSELISKMSTRLERIANFLRIYRRQASELGPLIDFFNYNNQSHLADFLEDYIDFAINEPDLLRPVVIAPQFSRQMLDRKLLLGNVPKQMTCYIREYHVDRVIKKLDEMCDLDSFFLFLHGRAGSGKSVIASQALSKSDQLIGINYDSIVWLKDSGTAPKSTFDLFTDILLMLKSEDDLLNFPSVEHVTSVVLKRMICNALIDRPNTLFVFDDVVQEETIRWAQELRLRCLVTTRDVEISNAASQTCEFIEVTSLEIDECYDFLEAYGMPMPVGEKEEDVLNKTIELSSGNPATLMMFFKSCEPKTFEKMAQLNNKLESRGLVGVECITPYSYKSLAMALQRCVEVLSDEDRSALAFAVVMPPGVDIPVKLWSCVIPVDICSNEEEQLDDEVADRLKRLSKRGALLSGKRMPVLTFKIDHIIHMFLKHVVDAQTIANGISILEQRLLEIGNNNVSVPERHIPSHFQKFRRSSASEMYPKTTEETVIRPEDFPKFMQLHQKFYDSLKNFACC
With B1, the binding entry was “binds”.
